The list is a part of this screen's results and no random one: it gathers tests that were run many times, whatever their T/C, doses with no T/C, and many T/C values between a quarter and a half above the control. Other doses and runs of a compound stand elsewhere. T/C is the treated group as % of the vehicle group. Some doses have a count of surviving animals in place of a T/C: the source files T/C as zero there, which appears to mark a toxic dose or a test without result, not a measured value. Some doses without a T/C left all or most animals alive at the check, yet need not have been tolerated: the source hardly ever lists a survival T/C far under the control, and the zero likely stands for such cases as well. Counts of survivors are from the toxicity check (mostly the fifth day) where no day follows; animals may have died later. Schedules are NCI's codes, read here as Q, the interval in days (D) or hours (H), X, the number of doses. Some entries hold several experiments; their values stand side by side, smallest first. Some molecules as drawn cover several salts, stereoisomers or complexes of the source; a dose is that of the sample tested. Brackets with × count equal records among those shown. Where survival is the endpoint, the PubChem record calls one and a half times the control and up active, and a quarter to a half above the control has no call in these data; cut-offs in other NCI protocols can differ. Some T/C values carry the count of animals alive at the toxicity check (mostly the fifth day); where none is given, no animal had died by that day.

The test relates to P388 leukemia ip, CD2F1 mice, survival T/C. The test can be described thus: NCI In Vivo Anticancer Drug Screen. Data for tumor model P388 Leukemia (intraperitoneal) in CD2F1 (CDF1) mice. The settings on record: T/C endpoint: median survival time, higher T/C = longer survival.
Setting [1] is: dose: 200.0 mg/kg/injection, schedule: Q01DX009 (ip), vehicle: Klucel (hydroxypropylcellulose) (HPC).
Setting [2] is: dose: 120.0 mg/kg/injection, schedule: Q01DX005 (ip), vehicle: saline with Tween-80.
The mark [3] stands for this setting: dose: 100.0 mg/kg/injection, schedule: Q01DX009 (ip), vehicle: other.
[4] abbreviates: dose: 200.0 mg/kg/injection, schedule: Q01DX009 (ip), vehicle: other.
Where [5] appears, read: dose: 400.0 mg/kg/injection, schedule: Q04DX002 (ip), vehicle: saline with Tween-80.
The mark [6] stands for this setting: dose: 200.0 mg/kg/injection, schedule: Q04DX002 (ip), vehicle: saline with Tween-80.
[7] abbreviates: dose: 100.0 mg/kg/injection, schedule: Q01DX009 (ip), vehicle: saline.
The mark [8] stands for this setting: dose: 200.0 mg/kg/injection, schedule: Q01DX009 (ip), vehicle: saline.
Where [9] appears, read: dose: 200.0 mg/kg/injection, schedule: Q01DX009 (ip), vehicle: saline with Tween-80.
The mark [10] stands for this setting: dose: 40.0 mg/kg/injection, schedule: Q04DX002 (ip), vehicle: saline with Tween-80.
[11] abbreviates: dose: 100.0 mg/kg/injection, schedule: Q04DX002 (ip), vehicle: saline with Tween-80.
Setting [12] is: dose: 240.0 mg/kg/injection, schedule: Q01DX005 (ip), vehicle: saline with Tween-80.

Turning to `CN1CCc2c(c3ccccc3c3ccccc23)C1`, the survivor count reads like this: (dose: 0.78 mg/kg/injection, schedule: Q01DX009 (ip), vehicle: Klucel (hydroxypropylcellulose) (HPC)) 6 of 6; (dose: 3.12 mg/kg/injection, schedule: Q01DX009 (ip), vehicle: Klucel (hydroxypropylcellulose) (HPC)) 6 of 6; (dose: 12.5 mg/kg/injection, schedule: Q01DX009 (ip), vehicle: Klucel (hydroxypropylcellulose) (HPC)) 6 of 6; (dose: 66.0 mg/kg/injection, schedule: Q01DX009 (ip), vehicle: Klucel (hydroxypropylcellulose) (HPC)) 2 of 6; (dose: 100.0 mg/kg/injection, schedule: Q01DX009 (ip), vehicle: Klucel (hydroxypropylcellulose) (HPC)) 0 of 6; (dose: 150.0 mg/kg/injection, schedule: Q01DX009 (ip), vehicle: Klucel (hydroxypropylcellulose) (HPC)) 0 of 6. Moreover, the survivor count is, setting by setting: under setting [1], 0 of 6; (dose: 400.0 mg/kg/injection, schedule: Q01DX009 (ip), vehicle: Klucel (hydroxypropylcellulose) (HPC)) 0 of 6. Also, the T/C (dose: 44.0 mg/kg/injection, schedule: Q01DX009 (ip), vehicle: Klucel (hydroxypropylcellulose) (HPC)) was 138 % of control [5 of 6 alive].
Take `O=C1NC(=O)/C(=C\c2ccccc2)C2=C1CCCC2`: the survivor count runs as follows: (dose: 100.0 mg/kg/injection, schedule: Q01DX005 (ip), vehicle: Klucel (hydroxypropylcellulose) (HPC)) 2 of 6; (dose: 200.0 mg/kg/injection, schedule: Q01DX005 (ip), vehicle: Klucel (hydroxypropylcellulose) (HPC)) 0 of 6.
For `CCCCCCCCCCCCCCCCc1c(C)nc(N(C)C)oc1=O`, the survivor count reads like this: (dose: 60.0 mg/kg/injection, schedule: Q01DX005 (ip), vehicle: saline with Tween-80) 6 of 6; under setting [2], 6 of 6.
Take `CSc1nccc2ccccc12`: the survivor count is, setting by setting: under setting [3], 6 of 6; under setting [4], 3 of 6.
For the molecule `COc1cc2c(c(OC)c1OC)-c1cc3c(cc1CC1COC(=O)C1C2)OCO3` (stereo unspecified), the survivor count under setting [5] is given as 6 of 6.
Take `CCCCCSc1ncnc2nc[nH]c12`: under “dose: 400.0 mg/kg/injection, schedule: Q04DX003 (ip), vehicle: saline with Tween-80”, the survivor count is 5 of 6.
As for `CC(C)=NNC(N)=S`, the survivor count (dose: 50.0 mg/kg/injection, schedule: Q04DX003 (ip), vehicle: Klucel (hydroxypropylcellulose) (HPC)) is 1 of 6; the survivor count (dose: 100.0 mg/kg/injection, schedule: Q04DX003 (ip), vehicle: Klucel (hydroxypropylcellulose) (HPC)) is recorded as 1 of 6; the survivor count (dose: 200.0 mg/kg/injection, schedule: Q04DX003 (ip), vehicle: Klucel (hydroxypropylcellulose) (HPC)) is 0 of 6; the survivor count (dose: 400.0 mg/kg/injection, schedule: Q04DX003 (ip), vehicle: Klucel (hydroxypropylcellulose) (HPC)) was 0 of 6.
On to `CCOC(=O)C(=CNc1cc(C)ccn1)C(=O)OCC`, for which the survivor count (dose: 400.0 mg/kg/injection, schedule: Q04DX003 (ip), vehicle: saline) is listed as 1 of 6.
With `Cc1cc(C)n2nc3c4ccsc4ncc3c2n1`, the survivor count reads like this: under setting [6], 0 of 6, 3 of 6, 5 of 6; under setting [5], 0 of 6.
Turning to `Cn1ccc(=Nc2ccc(NC(=O)c3ccc(N=c4ccn(C)c5ccc([N+](=O)[O-])cc45)cc3)cc2)cc1`, the survivor count runs as follows: (dose: 50.0 mg/kg/injection, schedule: Q01DX009 (ip), vehicle: other) 6 of 6; under setting [3], 4 of 6; under setting [4], 1 of 6; (dose: 400.0 mg/kg/injection, schedule: Q01DX009 (ip), vehicle: other) 2 of 6.
In the case of `CN(C)CCC(OC(=O)c1ccccc1Cl)c1ccccc1` (stereo unspecified), under setting [7], the T/C is 126 % of control. Further, the survivor count under setting [8] is listed as 0 of 6.
As to `O=C1C2=C(C(=O)c3cnccc31)C1C=CC2CC1` (stereo unspecified), the survivor count is, setting by setting: (dose: 100.0 mg/kg/injection, schedule: Q01DX005 (ip), vehicle: DMSO) 0 of 6; (dose: 200.0 mg/kg/injection, schedule: Q01DX005 (ip), vehicle: DMSO) 0 of 4 and 0 of 6; (dose: 400.0 mg/kg/injection, schedule: Q01DX005 (ip), vehicle: DMSO) 0 of 6.
In the case of `COc1ccc(C(=S)NC(O)C(=O)c2ccc(Cl)cc2)cc1OC` (stereo unspecified), the survivor count under setting [9] is 3 of 6.
`Nc1ccc2cc(Cl)ccc2c1`: the survivor count is 5 of 6 (dose: 25.0 mg/kg/injection, schedule: Q01DX009 (ip), vehicle: saline with Tween-80) and 5 of 6 (dose: 37.5 mg/kg/injection, schedule: Q01DX009 (ip), vehicle: saline with Tween-80).
Consider `c1ccc(-c2cc3nccnc3[nH]2)cc1`, for which, where the note is “dose: 240.0 mg/kg/injection, schedule: Q01DX005 (ip), vehicle: Klucel (hydroxypropylcellulose) (HPC)”, the survivor count is 0 of 6.
With `COc1cc(Br)cc(/C=C/[N+](=O)[O-])c1OC`, the survivor count runs as follows: (dose: 100.0 mg/kg/injection, schedule: Q01DX009 (ip), vehicle: saline with Tween-80) 1 of 6; under setting [9], 1 of 6.
For the molecule `CSc1nc2cc(S(=O)(=O)C(F)F)ccc2s1`, the survivor count (dose: 25.0 mg/kg/injection, schedule: Q01DX009 (ip), vehicle: Klucel (hydroxypropylcellulose) (HPC)) is given as 6 of 6.
For `NC(N)=NC(N)=Nc1ccc([As](=O)(O)O)c(O)c1`, the T/C (dose: 100.0 mg/kg/injection, schedule: Q01DX009 (ip), vehicle: saline sonified) is 136 % of control.
Take `O=C1c2cccc3cc([N+](=O)[O-])cc(c23)C(=O)N1CCNCCNCCNCCN1C(=O)c2cccc3cc([N+](=O)[O-])cc(c23)C1=O`: the T/C is 127 % of control (dose: 10.0 mg/kg/injection, schedule: Q04DX002 (ip), vehicle: saline with Tween-80); 128 and 134 % of control (dose: 20.0 mg/kg/injection, schedule: Q04DX002 (ip), vehicle: saline with Tween-80); 129 % of control under setting [10]. For the same molecule, the survivor count was 0 of 6 under setting [10]; 0 of 6 (dose: 80.0 mg/kg/injection, schedule: Q04DX002 (ip), vehicle: saline with Tween-80); 0 of 6 (dose: 89.5 mg/kg/injection, schedule: Q04DX002 (ip), vehicle: saline with Tween-80); 0 of 6 (dose: 179.0 mg/kg/injection, schedule: Q04DX002 (ip), vehicle: saline with Tween-80); 0 of 6 (dose: 358.0 mg/kg/injection, schedule: Q04DX002 (ip), vehicle: saline with Tween-80).
Take `CCN=C1SCCCS1`: the survivor count under setting [9] was 1 of 6.
Turning to `CCn1c(=O)c2cn[nH]c2n(CC)c1=O`, under setting [1], the survivor count is given as 2 of 6.
As for `CN(C)CC(CN(C)C)C(=O)c1ccccc1`, the T/C (dose: 12.5 mg/kg/injection, schedule: Q01DX009 (ip), vehicle: saline) was 125 and 127 % of control. The survivor count (dose: 50.0 mg/kg/injection, schedule: Q01DX009 (ip), vehicle: saline) is on record as 0 of 5, 2 of 6, 3 of 6; the survivor count under setting [7] was 0 of 5 and 0 of 6 (2×); the survivor count under setting [8] is 0 of 6 (2×).
Regarding `NC1=NC(c2ccccc2)C=C(c2ccccc2)N1` (stereo unspecified), the survivor count by setting is: under setting [11], 0 of 6; under setting [6], 0 of 6; under setting [5], 0 of 6.
For `CS(=O)(=O)Oc1c(Cl)cc(C(=O)c2ccc(Cl)cc2Cl)cc1Cl`, the T/C under setting [11] is 139 % of control and the T/C under setting [6] was 135 % of control. The survivor count under setting [5] is reported as 4 of 6.
On to `Cc1ccc(C)c(NC(=O)C#N)c1`, for which the survivor count was 0 of 6 under setting [2] and 0 of 6 under setting [12].
For `O=C(NCc1ccc(S(=O)(=O)F)cc1)Oc1ccc([N+](=O)[O-])cc1`, the survivor count by setting is: under setting [2], 3 of 6; under setting [12], 0 of 6.
On to `CC(C)CC(=O)N(CCC#N)c1ncc([N+](=O)[O-])s1`, for which the survivor count (dose: 400.0 mg/kg/injection, schedule: Q01DX001 (ip), vehicle: Klucel (hydroxypropylcellulose) (HPC)) is reported as 3 of 6.

For the origin of these results see PubChem BioAssay AID330 (DTP/NCI, 2004).
